Data on four molecules can be found in doi:10.1101/222083.

Sequences of proteins named here, by UniProt entry; tags and fusion partners are left off.
UniProt Q1D6H4: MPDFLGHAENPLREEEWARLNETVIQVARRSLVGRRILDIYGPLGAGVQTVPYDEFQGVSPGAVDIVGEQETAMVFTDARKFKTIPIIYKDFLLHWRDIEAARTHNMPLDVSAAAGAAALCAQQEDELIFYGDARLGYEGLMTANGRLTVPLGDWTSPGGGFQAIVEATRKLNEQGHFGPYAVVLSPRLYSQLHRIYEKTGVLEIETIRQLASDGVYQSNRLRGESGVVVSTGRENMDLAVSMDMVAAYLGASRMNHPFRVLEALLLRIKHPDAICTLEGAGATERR

Results are given in words; binding and its absence hold for the method and conditions named. For part of these data: Binding seen in cells or lysates may run through a third protein. Some results given as binding are weak or reduced against the parent protein; the word gives no strength. For part of these data: Where a sequence is shown, tags or fusion partners need not be part of it.

The target in assay [1] is MxEncA^FLAG, encapsulin shell protein A of M. xanthus with C-terminal FLAG tag (M. xanthus) (UniProt Q1D6H4). Put plainly: cryo-EM structure.
Assay [2] has the same target. As to the kind of experiment: native gel or EMSA. (In general: In EMSA bound probe runs differently from free probe, usually more slowly.)
Assay [3] has the same target. Put plainly: native gel or EMSA. This is another data set of the same source.
Assay [4] has the same target. As to the kind of experiment: co-IP.

As to “MxEncA^FLAG, encapsulin shell protein A of M. xanthus with C-terminal FLAG tag (from UniProt Q1D6H4 1-287)”, the binding result in assay [1], in assay [2] and in assay [3] was “binds” in each case.

B1: Myc-tagged encapsulin cargo protein B (MxEncB) (protein, UniProt Q1D6H3 1-158)
chain: MAGPPDSDLDDVARIRLVLARELETINEYEAYARASSNPEVRAFFQHLAAEEKEHVSEAVHMLRMLDSGQNDHFAKPFVPGHFQAAEAPAPATVHVPTPDGPAFSVNGRNGRLPSEPPTSLPPQRLLYGLPAPPPAVESHPLTVGSLRRGGGGSGSGR
Regarding B1, in assay [4], the binding entry is on record as “binds”.

B2: Myc-tagged encapsulin cargo protein D (MxEncD) (protein, UniProt Q1D9P3 1-109)
chain: MAKNSNPSAFDRDFGYLMPFLDRVAAAASDLEDASARAELTRLMVEEKARWQRIQELLGGAGGRGAAAPTPAREAPAEAPRLARGSADELHEAAPFATGLTVGSLRGSR
Consider B2, for which the binding result in assay [4] was “binds”.

B3: Myc-tagged encapsulin cargo protein C (MxEncC) (protein, UniProt Q1D3Y8 1-130)
chain: MPQTNPFHSLVPRKMTDTELARSIRLNIEAELDAINLYAAHIDATDNEDAKAILQHVMDEEREHAALFWELIARLDPEQAAHAKEAVEKYRLITSGASHEAVEAVGKEGAAPSPADVTPEKRLTVGSLRR
For the molecule B3, in assay [4], the binding result is listed as “binds”.
